Assay results published in publication PMC7367456.
No constants are given. Whether binding was seen depends on the method and setting. Some results given as binding are weak or reduced against the parent protein; the word gives no strength.

Key:
[1] = target: GLUTAMINE SYNTHASE 2 (GLN2), Arabidopsis thaliana (Arabidopsis thaliana (endogenous in leaves)) (UniProt Q43127); assay: native gel or EMSA; 2D: Clear Native PAGE then 12% SDS-PAGE of untreated A. thaliana leaf soluble extract (90 ug protein), SYPRO total protein stain
[2] = target: GLUTAMINE SYNTHASE 2 (GLN2), Arabidopsis thaliana (Arabidopsis thaliana (endogenous in leaves)) (UniProt Q43127); assay: native gel or EMSA; 2D: Clear Native PAGE then 12% SDS-PAGE of A. thaliana leaf soluble extract pre-treated with 0.25% SDS for 60 minutes, SYPRO total protein stain, compared with the untreated sample

B1: GLUTAMINE SYNTHASE 2 (GLN2), Arabidopsis thaliana (enzyme, UniProt Q43127 46-430)
chain: GFRVLALQSDNSTVNRVETLLNLDTKPYSDRIIAEYIWIGGSGIDLRSKSRTIEKPVEDPSELPKWNYDGSSTGQAPGEDSEVILYPQAIFRDPFRGGNNILVICDTWTPAGEPIPTNKRAKAAEIFSNKKVSGEVPWFGIEQEYTLLQQNVKWPLGWPVGAFPGPQGPYYCGVGADKIWGRDISDAHYKACLYAGINISGTNGEVMPGQWEFQVGPSVGIDAGDHVWCARYLLERITEQAGVVLTLDPKPIEGDWNGAGCHTNYSTKSMREEGGFEVIKKAILNLSLRHKEHISAYGEGNERRLTGKHETASIDQFSWGVANRGCSIRVGRDTEAKGKGYLEDRRPASNMDPYIVTSLLAETTLLWEPTLEAEALAAQKLSLNV
In the case of B1, the binding [1] is reported as “binds” and the binding [2] is reported as “no binding (condition: with 0.25% SDS)”.
